Results are given in words; binding and its absence hold for the method and conditions named. Binding seen in cells or lysates may run through a third protein. These calls come from enrichment with a bait or labelling near it, and not all partners need be listed.
Assays:
[1] = target: Flag-tagged IBV RdRp (Group a) (influenza B virus); assay: affinity purification with mass spectrometry
[2] = target: Flag-tagged IBV vRNP (Group b) (influenza B virus); assay: affinity purification with mass spectrometry

Binder	binding [1]	binding [2]
protein phosphatase Mg2+/Mn2+-dependent 1G (PPM1G), endogenous (enzyme, UniProt O15355 1-546) MGAYLSQPNTVKCSGDGVGAPRLPLPYGFSAMQGWRVSMEDAHNCIPELDSETAMFSVYDGHGGEEVALYCAKYLPDIIKDQKAYKEGKLQKALEDAFLAIDAKLTTEEVIKELAQIAGRPTEDEDEKEKVADEDDVDNEEAALLHEEATMTIEELLTRYGQNCHKGPPHSKSGGGTGEEPGSQGLNGEAGPEDSTRETPSQENGPTAKAYTGFSSNSERGTEAGQVGEPGIPTGEAGPSCSSASDKLPRVAKSKFFEDSEDESDEAEEEEEDSEECSEEEDGYSSEEAENEEDEDDTEEAEEDDEEEEEEMMVPGMEGKEEPGSDSGTTAVVALIRGKQLIVANAGDSRCVVSEAGKALDMSYDHKPEDEVELARIKNAGGKVTMDGRVNGGLNLSRAIGDHFYKRNKNLPPEEQMISALPDIKVLTLTDDHEFMVIACDGIWNVMSSQEVVDFIQSKISQRDENGELRLLSSIVEELLDQCLAPDTSGDGTGCDNMTCIIICFKPRNTAELQPESGKRKLEEVLSTEGAEENGNSDKKKKAKRD	binds	binds
STOML2, endogenous (protein, UniProt Q9UJZ1-2 29-311) SSGLPRNTVVLFVPQQEAWVVERMGRFHRILEPGLNILIPVLDRIRYVQSLKEIVINVPEQSAVTLDNVTLQIDGVLYLRIMDPYKASYGVEDPEYAVTQLAQTTMRSELGKLSLDKVFRVEAERRKRATVLESEGTRESAINVAEGKKQAQILASEAEKAEQINQAAGEASAVLAKAKAKAEAIRILAAALTQHNGDAAASLTVAEQYVSAFSKLAKDSNTILLPSNPGDVTSMVAQAMGVYGALTKAPVPGTPDSLSSGSSRDVQGTDASLDEELDRVKMS	binds	binds
